Data from the supplement of paper PMC12067093, “Discovery and optimisation of a covalent ligand for TRIM25 and its application to targeted protein ubiquitination” (Chemical Science, 2025).
Some of the results follow.

Sequences of proteins named here, by UniProt entry; tags and fusion partners are left off. A change or cut given only in a name is not applied to a line headed by its entry.
UniProt Q8IWT6: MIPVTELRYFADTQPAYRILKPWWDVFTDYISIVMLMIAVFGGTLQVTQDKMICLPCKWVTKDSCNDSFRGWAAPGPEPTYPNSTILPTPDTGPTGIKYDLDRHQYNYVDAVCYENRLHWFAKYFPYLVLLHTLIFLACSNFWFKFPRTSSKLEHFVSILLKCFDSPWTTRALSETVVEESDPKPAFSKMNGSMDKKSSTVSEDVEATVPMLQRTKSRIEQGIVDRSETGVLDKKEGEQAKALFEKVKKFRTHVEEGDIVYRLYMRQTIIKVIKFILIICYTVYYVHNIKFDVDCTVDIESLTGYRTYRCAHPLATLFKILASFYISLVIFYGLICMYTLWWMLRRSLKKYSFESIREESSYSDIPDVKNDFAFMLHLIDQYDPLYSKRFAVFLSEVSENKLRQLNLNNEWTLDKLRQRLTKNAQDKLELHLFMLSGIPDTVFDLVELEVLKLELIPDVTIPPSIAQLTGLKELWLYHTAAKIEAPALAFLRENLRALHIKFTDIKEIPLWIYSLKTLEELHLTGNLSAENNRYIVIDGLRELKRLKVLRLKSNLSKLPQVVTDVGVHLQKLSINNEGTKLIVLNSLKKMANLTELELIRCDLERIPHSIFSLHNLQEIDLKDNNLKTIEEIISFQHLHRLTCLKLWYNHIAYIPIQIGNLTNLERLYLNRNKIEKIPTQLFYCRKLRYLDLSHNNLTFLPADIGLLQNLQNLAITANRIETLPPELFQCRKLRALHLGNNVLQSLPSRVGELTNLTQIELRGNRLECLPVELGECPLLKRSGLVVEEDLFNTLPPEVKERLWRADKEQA
UniProt Q6MZP7: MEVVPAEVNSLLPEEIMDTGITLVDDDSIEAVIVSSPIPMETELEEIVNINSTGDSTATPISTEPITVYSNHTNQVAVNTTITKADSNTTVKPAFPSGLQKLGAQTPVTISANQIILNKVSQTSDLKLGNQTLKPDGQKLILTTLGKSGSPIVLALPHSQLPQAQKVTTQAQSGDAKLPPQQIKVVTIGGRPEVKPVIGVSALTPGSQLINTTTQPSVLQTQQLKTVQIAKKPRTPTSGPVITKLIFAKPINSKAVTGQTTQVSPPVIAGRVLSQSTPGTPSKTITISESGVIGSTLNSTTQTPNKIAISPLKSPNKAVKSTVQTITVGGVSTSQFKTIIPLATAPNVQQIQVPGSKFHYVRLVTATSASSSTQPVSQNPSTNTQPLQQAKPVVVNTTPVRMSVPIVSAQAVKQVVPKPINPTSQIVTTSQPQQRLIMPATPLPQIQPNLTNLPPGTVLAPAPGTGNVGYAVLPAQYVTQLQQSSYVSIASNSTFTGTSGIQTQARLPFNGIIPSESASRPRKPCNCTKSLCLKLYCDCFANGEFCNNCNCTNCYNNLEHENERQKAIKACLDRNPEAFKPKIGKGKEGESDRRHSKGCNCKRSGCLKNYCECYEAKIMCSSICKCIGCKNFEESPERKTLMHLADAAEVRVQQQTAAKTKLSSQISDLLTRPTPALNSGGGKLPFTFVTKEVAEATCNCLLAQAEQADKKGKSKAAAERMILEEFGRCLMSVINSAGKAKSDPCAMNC
UniProt Q8N9N7: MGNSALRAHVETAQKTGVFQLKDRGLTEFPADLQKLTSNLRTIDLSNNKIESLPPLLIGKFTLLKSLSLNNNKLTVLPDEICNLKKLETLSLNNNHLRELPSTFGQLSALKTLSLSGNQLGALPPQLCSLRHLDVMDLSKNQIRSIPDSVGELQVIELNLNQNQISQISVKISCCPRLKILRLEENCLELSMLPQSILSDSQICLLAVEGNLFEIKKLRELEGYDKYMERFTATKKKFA
UniProt O60711: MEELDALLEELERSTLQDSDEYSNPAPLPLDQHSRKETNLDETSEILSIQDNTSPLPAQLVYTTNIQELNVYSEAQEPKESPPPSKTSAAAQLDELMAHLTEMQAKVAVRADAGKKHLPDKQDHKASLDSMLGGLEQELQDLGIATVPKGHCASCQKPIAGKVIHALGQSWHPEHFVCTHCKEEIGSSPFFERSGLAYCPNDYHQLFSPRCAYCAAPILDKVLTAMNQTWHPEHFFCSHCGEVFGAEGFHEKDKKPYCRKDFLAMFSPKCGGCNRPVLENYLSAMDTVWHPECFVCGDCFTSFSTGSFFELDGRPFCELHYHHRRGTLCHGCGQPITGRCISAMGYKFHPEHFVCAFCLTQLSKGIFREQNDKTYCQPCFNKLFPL
UniProt P36776: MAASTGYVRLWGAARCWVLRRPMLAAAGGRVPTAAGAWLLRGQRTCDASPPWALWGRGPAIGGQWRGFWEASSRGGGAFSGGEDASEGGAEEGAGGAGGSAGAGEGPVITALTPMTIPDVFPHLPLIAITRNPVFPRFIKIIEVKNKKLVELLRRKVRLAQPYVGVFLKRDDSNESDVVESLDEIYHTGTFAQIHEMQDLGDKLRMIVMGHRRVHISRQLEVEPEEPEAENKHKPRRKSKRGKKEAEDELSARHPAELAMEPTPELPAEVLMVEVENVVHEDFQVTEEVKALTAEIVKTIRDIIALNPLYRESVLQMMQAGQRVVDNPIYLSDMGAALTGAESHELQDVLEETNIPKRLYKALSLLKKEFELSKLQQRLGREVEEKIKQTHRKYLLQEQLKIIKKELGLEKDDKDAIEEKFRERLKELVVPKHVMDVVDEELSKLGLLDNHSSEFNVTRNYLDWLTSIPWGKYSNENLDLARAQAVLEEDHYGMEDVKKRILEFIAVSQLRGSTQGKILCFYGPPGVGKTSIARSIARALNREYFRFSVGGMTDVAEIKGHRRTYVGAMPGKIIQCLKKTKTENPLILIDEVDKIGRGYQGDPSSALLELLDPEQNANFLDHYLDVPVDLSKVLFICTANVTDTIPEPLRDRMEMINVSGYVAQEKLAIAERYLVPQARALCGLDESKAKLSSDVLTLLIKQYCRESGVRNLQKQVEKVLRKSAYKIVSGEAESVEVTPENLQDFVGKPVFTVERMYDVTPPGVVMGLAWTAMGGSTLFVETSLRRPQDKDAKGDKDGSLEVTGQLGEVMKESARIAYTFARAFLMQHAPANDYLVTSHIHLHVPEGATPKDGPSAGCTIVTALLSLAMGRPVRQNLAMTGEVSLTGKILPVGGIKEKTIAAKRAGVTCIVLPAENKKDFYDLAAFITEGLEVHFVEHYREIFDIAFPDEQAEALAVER
UniProt Q93052: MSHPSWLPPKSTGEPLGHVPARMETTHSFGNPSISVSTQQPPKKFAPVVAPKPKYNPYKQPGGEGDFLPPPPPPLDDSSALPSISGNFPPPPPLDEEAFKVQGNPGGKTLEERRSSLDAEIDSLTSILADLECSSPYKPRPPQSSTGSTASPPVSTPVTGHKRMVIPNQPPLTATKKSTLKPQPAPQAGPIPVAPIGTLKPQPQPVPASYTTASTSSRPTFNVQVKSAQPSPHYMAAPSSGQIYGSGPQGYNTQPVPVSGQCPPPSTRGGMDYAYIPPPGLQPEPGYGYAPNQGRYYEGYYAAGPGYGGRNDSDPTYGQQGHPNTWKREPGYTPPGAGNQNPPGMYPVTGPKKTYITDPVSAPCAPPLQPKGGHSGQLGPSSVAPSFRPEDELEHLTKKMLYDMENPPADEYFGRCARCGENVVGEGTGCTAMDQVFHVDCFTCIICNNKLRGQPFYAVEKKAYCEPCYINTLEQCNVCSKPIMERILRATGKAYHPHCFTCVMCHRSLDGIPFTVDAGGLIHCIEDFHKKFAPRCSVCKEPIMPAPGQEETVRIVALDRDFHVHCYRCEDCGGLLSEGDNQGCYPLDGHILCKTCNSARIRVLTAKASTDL
UniProt P49917: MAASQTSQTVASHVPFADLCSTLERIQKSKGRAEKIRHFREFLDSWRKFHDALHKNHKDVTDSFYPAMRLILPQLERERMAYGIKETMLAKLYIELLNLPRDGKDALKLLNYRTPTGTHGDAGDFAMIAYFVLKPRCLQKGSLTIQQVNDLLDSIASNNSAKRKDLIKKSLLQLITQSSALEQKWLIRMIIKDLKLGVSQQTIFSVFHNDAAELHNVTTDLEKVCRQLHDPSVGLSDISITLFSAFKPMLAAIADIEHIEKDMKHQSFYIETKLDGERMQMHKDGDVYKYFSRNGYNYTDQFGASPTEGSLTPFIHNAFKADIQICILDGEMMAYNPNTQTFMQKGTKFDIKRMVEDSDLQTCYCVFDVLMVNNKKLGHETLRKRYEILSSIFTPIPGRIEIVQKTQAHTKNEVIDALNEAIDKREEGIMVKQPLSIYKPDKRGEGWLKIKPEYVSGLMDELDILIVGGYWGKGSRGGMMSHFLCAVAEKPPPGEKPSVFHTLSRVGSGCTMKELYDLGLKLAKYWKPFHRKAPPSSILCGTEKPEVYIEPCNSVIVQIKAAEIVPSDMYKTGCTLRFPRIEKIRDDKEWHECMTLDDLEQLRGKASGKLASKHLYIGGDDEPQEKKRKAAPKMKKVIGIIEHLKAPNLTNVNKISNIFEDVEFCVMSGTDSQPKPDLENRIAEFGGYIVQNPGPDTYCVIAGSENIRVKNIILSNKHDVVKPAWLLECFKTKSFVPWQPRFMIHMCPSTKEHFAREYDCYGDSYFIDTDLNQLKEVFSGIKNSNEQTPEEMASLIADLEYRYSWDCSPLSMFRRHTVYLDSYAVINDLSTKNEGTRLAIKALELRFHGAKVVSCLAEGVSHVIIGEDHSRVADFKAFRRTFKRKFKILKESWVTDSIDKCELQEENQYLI
UniProt P48059, whole entry, looked up: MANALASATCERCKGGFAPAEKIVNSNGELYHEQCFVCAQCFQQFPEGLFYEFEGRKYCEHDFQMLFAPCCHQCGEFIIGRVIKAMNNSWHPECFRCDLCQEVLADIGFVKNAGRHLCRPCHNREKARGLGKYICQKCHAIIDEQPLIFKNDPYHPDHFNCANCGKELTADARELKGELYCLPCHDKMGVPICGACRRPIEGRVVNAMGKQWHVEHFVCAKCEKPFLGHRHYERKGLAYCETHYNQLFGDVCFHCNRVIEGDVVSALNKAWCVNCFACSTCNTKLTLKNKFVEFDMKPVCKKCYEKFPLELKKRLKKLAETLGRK
UniProt Q96B70: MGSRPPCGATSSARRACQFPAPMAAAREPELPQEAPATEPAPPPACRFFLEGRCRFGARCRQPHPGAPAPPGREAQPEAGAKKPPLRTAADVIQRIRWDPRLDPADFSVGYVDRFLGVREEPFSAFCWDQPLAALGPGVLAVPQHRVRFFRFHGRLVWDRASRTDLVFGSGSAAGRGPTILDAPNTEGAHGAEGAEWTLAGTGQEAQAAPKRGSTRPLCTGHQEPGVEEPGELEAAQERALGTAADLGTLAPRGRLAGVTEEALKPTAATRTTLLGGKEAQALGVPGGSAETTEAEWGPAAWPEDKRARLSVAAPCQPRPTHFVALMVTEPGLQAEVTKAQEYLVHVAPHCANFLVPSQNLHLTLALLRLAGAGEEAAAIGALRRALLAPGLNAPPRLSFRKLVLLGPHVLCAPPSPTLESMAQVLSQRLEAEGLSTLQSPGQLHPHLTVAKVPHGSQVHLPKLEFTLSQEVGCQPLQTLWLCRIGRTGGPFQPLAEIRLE
UniProt P18858, whole entry, looked up: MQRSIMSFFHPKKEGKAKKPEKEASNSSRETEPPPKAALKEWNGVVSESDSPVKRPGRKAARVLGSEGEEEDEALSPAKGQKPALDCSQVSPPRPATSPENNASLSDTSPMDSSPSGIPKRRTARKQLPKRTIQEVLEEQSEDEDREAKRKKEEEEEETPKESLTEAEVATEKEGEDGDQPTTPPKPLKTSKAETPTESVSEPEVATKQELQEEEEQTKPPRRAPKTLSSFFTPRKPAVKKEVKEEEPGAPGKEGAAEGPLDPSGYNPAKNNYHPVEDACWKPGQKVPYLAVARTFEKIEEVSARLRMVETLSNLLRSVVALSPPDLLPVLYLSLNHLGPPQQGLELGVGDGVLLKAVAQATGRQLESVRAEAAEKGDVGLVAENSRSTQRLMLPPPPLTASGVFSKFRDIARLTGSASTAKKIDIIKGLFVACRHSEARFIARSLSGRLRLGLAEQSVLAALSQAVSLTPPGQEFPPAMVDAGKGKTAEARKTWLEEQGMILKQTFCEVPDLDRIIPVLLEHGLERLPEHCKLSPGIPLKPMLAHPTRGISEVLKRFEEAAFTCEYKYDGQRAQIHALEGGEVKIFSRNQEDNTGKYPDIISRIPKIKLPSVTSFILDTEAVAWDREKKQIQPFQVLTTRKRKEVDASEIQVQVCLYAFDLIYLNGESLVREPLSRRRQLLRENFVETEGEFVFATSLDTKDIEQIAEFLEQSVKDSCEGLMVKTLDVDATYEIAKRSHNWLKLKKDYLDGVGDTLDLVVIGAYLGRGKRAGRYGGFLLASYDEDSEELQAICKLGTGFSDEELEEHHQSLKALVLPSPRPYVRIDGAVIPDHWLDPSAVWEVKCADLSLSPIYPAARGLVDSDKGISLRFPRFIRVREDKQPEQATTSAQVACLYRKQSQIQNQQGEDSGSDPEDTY

Compound: Cc1cc(ccc1-c1ccccc1)C(=O)N1CCCN(CC1)C(=O)CCl [compound 10]
Test: probe-labelled cysteine peptide fold change vs DMSO (competition) (log2 fold change); higher = less target engagement (more negative = stronger competition)
Conditions: THP-1, incubation time: 4 h
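Also: competitive profiling in live THP-1 cells: cysteine peptides tagged with an iodoacetamide desthiobiotin (IA-DTB) probe, intensity after compound treatment relative to DMSO-treated cells.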

Target	probe-labelled cysteine peptide fold change (10 µM)	probe-labelled cysteine peptide fold change (50 µM)
LMNA_P02545_522_AQNTWGCGNSLR (UniProt P02545)	0.00905	-0.187
LNPEP_Q9UIQ6_35_EPCLHPLEPDEVEYEPR (UniProt Q9UIQ6)	-0.24	-0.268
LRRC8A_Q8IWT6_684_IPTQLFYCR (UniProt Q8IWT6)	0.162	0.2
LGALS3_P17931_173_VIVCNTK (UniProt P17931)	0.0884	-0.00184
LIN54_Q6MZP7_729_CLMSVINSAGK (UniProt Q6MZP7)	0.193	-0.0473
LRCH4_O75427_88_NRFPEVPEAACQLVSLEGLSLYHNCLR (UniProt O75427)	0.0451	-0.293
LMNA_P02545_570_SVTVVEDDEDEDGDDLLHHHHGSHCSSSGDPAEYNLR (UniProt P02545)	0.282	0.336
LPIN3_Q9BQK8_443_SLRDPNPEHEPEPTLDTVDTIALSLCGGLADSR (UniProt Q9BQK8)	-0.112	0.0613
LRRC57_Q8N9N7_82_LTVLPDEICNLK (UniProt Q8N9N7)	-0.0865	0.0875
LPXN_O60711_155_GHCASCQK (UniProt O60711)	0.146	0.237
LPXN_O60711_178_VIHALGQSWHPEHFVCTHCK (UniProt O60711)	0.187	-0.0881
LRR1_Q96L50_5_LHCEVEVISR (UniProt Q96L50)	-0.12	0.0535
LRMDA_Q9H2I8_106_CFVLYK (UniProt Q9H2I8)	0.108	0.0381
LONP1_P36776_909_AGVTCIVLPAENKK (UniProt P36776)	-0.00288	-0.138
LPP_Q93052_499+502+505_AYHPHCFTCVMCHR (UniProt Q93052)	0.0502	-0.141
LIG4_P49917_855_VVSCLAEGVSHVIIGEDHSR (UniProt P49917)	0.029	0.16
LIMS1_P48059_281_AWCVNCFACSTCNTK (UniProt P48059)	0.00276	0.175
LRRC14_Q15048_109_LHTSEPGASTQPLCR (UniProt Q15048)	0.268	-0.21
LSS_P48449_484_LCDAVAVLLNMR (UniProt P48449)	0.0147	0.0559

Quoted from the listing:
probe-labelled cysteine peptide fold change (10 µM), LPXN_O60711_178_VIHALGQSWHPEHFVCTHCK (UniProt O60711) is entered as 0.187
probe-labelled cysteine peptide fold change (50 µM), LIMS1_P48059_281_AWCVNCFACSTCNTK (UniProt P48059) is entered as 0.175
probe-labelled cysteine peptide fold change (50 µM), LIG4_P49917_855_VVSCLAEGVSHVIIGEDHSR (UniProt P49917) is entered as 0.16

More records

Target	probe-labelled cysteine peptide fold change (10 µM)	probe-labelled cysteine peptide fold change (50 µM)
LIMS1_P48059_164_NDPYHPDHFNCANCGK (UniProt P48059)	-0.0284	-0.215
LRRC42_Q9Y546_151+154_FTEAYGSLVLCSLCLR (UniProt Q9Y546)	-0.00875	0.283
LENG9_Q96B70_7_GSRPPCGATSSAR (UniProt Q96B70)	-0.158	0.528
LRPPRC_P42704_722_AKYESDMVTGGYAALINLCCR (UniProt P42704)	0.0118	-0.476
LIG1_P18858_508_QTFCEVPDLDR (UniProt P18858)	-0.0499	-0.0138
LIMD1_Q9UGP4_305_TPSVSAPLALSCPR (UniProt Q9UGP4)	-0.198	-0.543
LMAN2_Q12907_239_NCIDITGVR (UniProt Q12907)	0.112	0.322
LPP_Q93052_524_SLDGIPFTVDAGGLIHCIEDFHK (UniProt Q93052)	0.00357	0.0957
LMAN1_P49257_190_NNPAIVIIGNNGQIHYDHQNDGASQALASCQR (UniProt P49257)	-0.101	0.195
LONP2_Q86WA8_405_IALGGVCDQSDIR (UniProt Q86WA8)	0.0443	0.172
LSM12_Q3MHD2_17_AAPPGEYFSVGSQVSCR (UniProt Q3MHD2)	-0.189	-0.222
LRCH3_Q96II8_102_LSEIPIEACHFVSLENLNLYQNCIR (UniProt Q96II8)	0.126	0.0178
LIG1_P18858_280_NNYHPVEDACWKPGQK (UniProt P18858)	-0.214	-0.0348
LETM1_O95202_330_LFEDELTLDNLTRPQLVALCK (UniProt O95202)	0.44	0.881
LPXN_O60711_340_CISAMGYK (UniProt O60711)	-0.00957	-0.275
LRRC8A_Q8IWT6_57_MICLPCK (UniProt Q8IWT6)	0.0504	0.00851
LIMK1_P53667_466_DLNSHNCLVR (UniProt P53667)	0.00616	-0.134
LRRC47_Q8N1G4_224_TLDLSNNQLSEIPAELADCPK (UniProt Q8N1G4)	0.00243	0.024
LRRFIP1_Q32MZ4_726+742_CTLPEHESPSQDISDACEAESTER (UniProt Q32MZ4)	-0.403	-0.296
